The target of experiment [1] is T1, BAK (human (endogenous in HeLa)) (UniProt Q16611).
T1 sequence: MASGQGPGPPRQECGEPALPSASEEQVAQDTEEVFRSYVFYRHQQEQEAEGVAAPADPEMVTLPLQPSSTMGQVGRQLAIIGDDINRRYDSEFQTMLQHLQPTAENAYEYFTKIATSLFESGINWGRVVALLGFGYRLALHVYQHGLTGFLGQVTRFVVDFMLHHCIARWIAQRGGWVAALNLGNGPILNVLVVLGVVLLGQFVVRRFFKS
Kind of experiment: co-IP; HeLa OmpA expressing cells, with or without ABT-737 (1 uM) and S63845 (500 nM) for 3 h with QVD-OPh (10 uM); lysis in 1% CHAPS; BAK precipitated with an antibody against active and inactive BAK (clone 7D10) on protein G agarose overnight at 4 °C; immunoblot for BAK and OmpA. On the technique in general: A western blot detects proteins with antibodies after separation by electrophoresis.

In experiment [2] the target is T1, BAK (human (endogenous in HeLa)). As to the kind of experiment: proximity ligation; Tet-OmpA HeLa cells induced with AHT for 48 h, with ABT-737/S63845 and QVD-OPh (Fig 2B); fixed, permeabilised cells; Duolink PLA with antibodies against active BAK (aa23-38 or Ab-1 (TC-100)) and OmpA.
The target is the same in experiment [3]. As to the kind of experiment: co-IP; Ctr-infected HeLa cells (MOI 5) treated with ABT-737 (1 uM) and S63845 (500 nM) for 4 h; mitochondria isolated and lysed in 1% CHAPS; precipitation with BAK (aa23-38) antibody or IgG isotype control; immunoblot for BAK and OmpA.
The target is the same in experiment [4]. As to the kind of experiment: proximity ligation; BAX-deficient HeLa cells, Ctr-infected (MOI 5) 24 h, then ABT-737 (1 uM) and S63845 (500 nM) for 4 h with QVD-OPh (10 uM); fixed, permeabilised cells; PLA with antibodies against active BAK (Ab-1 (TC-100)) and OmpA.

Results are given in words; binding and its absence hold for the method and conditions named. In cells and extracts the contact can be indirect. Some binding calls cover weakened binding; strength is not graded here. For some of these results: Sequences can lack the tags named with a protein.

B1: OmpA from Chlamydia trachomatis, ectopically expressed in HeLa cells (HeLa OmpA expressing cells of Fig 2A) (protein, UniProt P06597 23-394)
chain: LPVGNPAEPSLMIDGILWEGFGGDPCDPCTTWCDAISMRMGYYGDFVFDRVLQTDVNKEFQMGAKPTTATGNAAAPSTCTARENPAYGRHMQDAEMFTNAAYMALNIWDRFDVFCTLGATSGYLKGNSASFNLVGLFGDNENHATVSDSKLVPNMSLDQSVVELYTDTTFAWSAGARAALWECGCATLGASFQYAQSKPKVEELNVLCNAAEFTINKPKGYVGQEFPLDLKAGTDGVTGTKDASIDYHEWQASLALSYRLNMFTPYIGVKWSRASFDADTIRIAQPKSATTVFDVTTLNPTIAGAGDVKASAEGQLGDTMQIVSLQLNKMKSRKSCGIAVGTTIVDADKYAVTVETRLIDERAAHVNAQFRF
As to B1, in experiment [1], the binding entry is listed as “binds”.

B2: OmpA from Chlamydia trachomatis, untagged, tetracycline/AHT-inducible in HeLa cells (Tet-OmpA HeLa cells) (protein, UniProt P06597 23-394)
chain: LPVGNPAEPSLMIDGILWEGFGGDPCDPCTTWCDAISMRMGYYGDFVFDRVLQTDVNKEFQMGAKPTTATGNAAAPSTCTARENPAYGRHMQDAEMFTNAAYMALNIWDRFDVFCTLGATSGYLKGNSASFNLVGLFGDNENHATVSDSKLVPNMSLDQSVVELYTDTTFAWSAGARAALWECGCATLGASFQYAQSKPKVEELNVLCNAAEFTINKPKGYVGQEFPLDLKAGTDGVTGTKDASIDYHEWQASLALSYRLNMFTPYIGVKWSRASFDADTIRIAQPKSATTVFDVTTLNPTIAGAGDVKASAEGQLGDTMQIVSLQLNKMKSRKSCGIAVGTTIVDADKYAVTVETRLIDERAAHVNAQFRF
Consider B2, for which the binding entry in experiment [2] is reported as “binds”.

B3: OmpA of Chlamydia trachomatis serovar L2, made by the bacteria during infection of HeLa cells (protein, UniProt P06597 23-394)
chain: LPVGNPAEPSLMIDGILWEGFGGDPCDPCTTWCDAISMRMGYYGDFVFDRVLQTDVNKEFQMGAKPTTATGNAAAPSTCTARENPAYGRHMQDAEMFTNAAYMALNIWDRFDVFCTLGATSGYLKGNSASFNLVGLFGDNENHATVSDSKLVPNMSLDQSVVELYTDTTFAWSAGARAALWECGCATLGASFQYAQSKPKVEELNVLCNAAEFTINKPKGYVGQEFPLDLKAGTDGVTGTKDASIDYHEWQASLALSYRLNMFTPYIGVKWSRASFDADTIRIAQPKSATTVFDVTTLNPTIAGAGDVKASAEGQLGDTMQIVSLQLNKMKSRKSCGIAVGTTIVDADKYAVTVETRLIDERAAHVNAQFRF
As for B3, the binding result in experiment [3] and in experiment [4] was “binds” in each case.

(Values after publication PMC12890168.)
